Measurements: patent publication US20180207228A1, “PEPTIDE COMBINATIONS AND USES THEREOF FOR TREATING GRASS ALLERGY” (ALK-Abelló A/S, priority 2015, published 2018)
Some of these results come from one statement about several compounds together. Where no end group is shown, it is not given here.

System: grass pollen allergic donor derived TCL-03 lines
Assay: Extended cross-reactivity study, proliferation on TCL03 DK1+DK2 (Study XR2), scoring
Assay type: cell-based, human
Settings: 2 μg/ml, 20 donors, score 0 to 7

With GEEQKLRSAGELELQFRRVK-OH [compound 377] the “cross-reactivity score of homologue” value was at least 1.
